Data as given in patent publication US20160257728A1.
No constants are given. Whether binding was seen depends on the method and setting. Some entries that bind do so weakly or less than the wild type. For some of these results: Tags and fused reporters may be left off the sequences shown.

The chains behind the UniProt entries cited, without tags or fusion partners. Residues count along the entry.
UniProt P37023, residues 22-118: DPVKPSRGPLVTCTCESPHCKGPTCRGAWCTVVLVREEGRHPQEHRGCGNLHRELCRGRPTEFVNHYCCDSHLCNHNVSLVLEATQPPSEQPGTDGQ
UniProt P27037: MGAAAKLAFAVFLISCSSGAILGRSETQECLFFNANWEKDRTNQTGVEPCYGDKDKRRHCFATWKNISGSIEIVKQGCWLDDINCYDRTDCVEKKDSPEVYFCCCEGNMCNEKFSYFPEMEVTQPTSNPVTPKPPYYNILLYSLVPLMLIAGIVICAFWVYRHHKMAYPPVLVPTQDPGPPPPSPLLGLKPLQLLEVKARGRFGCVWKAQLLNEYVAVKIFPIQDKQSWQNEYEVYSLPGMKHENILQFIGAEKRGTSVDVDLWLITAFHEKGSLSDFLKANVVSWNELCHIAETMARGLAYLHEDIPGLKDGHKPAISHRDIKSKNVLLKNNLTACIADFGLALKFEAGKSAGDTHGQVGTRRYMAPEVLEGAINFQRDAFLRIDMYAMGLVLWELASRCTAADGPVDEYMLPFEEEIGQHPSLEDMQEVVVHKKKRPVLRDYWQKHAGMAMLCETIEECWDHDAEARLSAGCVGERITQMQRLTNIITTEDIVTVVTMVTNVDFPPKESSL

Experiments:
BMPRII ECD-Fc (human) [1] = biological target: T1, BMPRII ECD-Fc (human) (UniProt Q13873); test: SPR, immobilised receptor ECDs
T1 sequence (looked up): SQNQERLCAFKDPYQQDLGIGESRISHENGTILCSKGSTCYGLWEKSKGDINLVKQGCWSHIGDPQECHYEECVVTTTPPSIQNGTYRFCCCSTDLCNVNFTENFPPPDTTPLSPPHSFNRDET

ALK1 ECD-Fc (human) [2] = biological target: ALK1 ECD-Fc (human) (UniProt P37023); test: SPR, immobilised receptor ECDs
ActRIIa ECD-Fc (human) = ActRIIa ECD-Fc (human) (UniProt P27037); test: SPR, immobilised receptor ECDs
ActRIIb ECD-Fc (human) [3] = biological target: T2, ActRIIb ECD-Fc (human) (UniProt Q13705); test: SPR, immobilised receptor ECDs
T2 sequence (looked up): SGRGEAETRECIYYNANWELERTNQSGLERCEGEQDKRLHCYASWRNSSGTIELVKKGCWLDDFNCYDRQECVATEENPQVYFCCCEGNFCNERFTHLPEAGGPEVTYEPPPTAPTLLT

BMPRII ECD-Fc (human) [4] = biological target: T1, BMPRII ECD-Fc (human); test: receptor binding analysis (SPR)
ALK1 ECD-Fc (human) [5] = biological target: ALK1 ECD-Fc (human) (UniProt P37023); test: receptor binding analysis (SPR)
ActRIIb ECD-Fc (human) [6] = biological target: T2, ActRIIb ECD-Fc (human); test: receptor binding analysis (SPR)

binding (BMPRII ECD-Fc (human) [1]): binds
binding (ALK1 ECD-Fc (human) [2]): binds
binding (ActRIIa ECD-Fc (human)): binds
binding (ActRIIb ECD-Fc (human) [3]): binds
binding (BMPRII ECD-Fc (human) [4]): binds
binding (ALK1 ECD-Fc (human) [5]): binds
binding (ActRIIb ECD-Fc (human) [6]): binds
B1: MB109 protein (bioactive recombinant human BMP-9 expressed in E. coli and refolded; functional dimer) (ligand)
chain: MSAGAGSHCQKTSLRVNFEDIGWDSWIIAPKEYEAYECKGGCFFPLADDVTPTKHAIVQTLVHLKFPTKVGKACCVPTKLSPISVLYKDDMGVPTLKYHYEGMSVAECGCR
